The assay has as its target interleukin-8 (IL-8) (UniProt P10145). Put plainly: co-IP; lysate of cells transfected with pCDNA3-HA-p300 incubated overnight with anti-IL-8 antibody and Sepharose beads; washed three times with cold lysis buffer; SDS-PAGE and western blot; IgG as negative control, CBP as positive control. A general note: Immunoblotting shows a protein as a band on a membrane.

Chains of the proteins cited; added tags and fusions are not shown. Residues count along the entry.
UniProt P10145, residues 21-99: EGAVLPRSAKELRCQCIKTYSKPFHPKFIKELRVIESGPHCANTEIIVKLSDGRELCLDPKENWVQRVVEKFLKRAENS
UniProt Q09472: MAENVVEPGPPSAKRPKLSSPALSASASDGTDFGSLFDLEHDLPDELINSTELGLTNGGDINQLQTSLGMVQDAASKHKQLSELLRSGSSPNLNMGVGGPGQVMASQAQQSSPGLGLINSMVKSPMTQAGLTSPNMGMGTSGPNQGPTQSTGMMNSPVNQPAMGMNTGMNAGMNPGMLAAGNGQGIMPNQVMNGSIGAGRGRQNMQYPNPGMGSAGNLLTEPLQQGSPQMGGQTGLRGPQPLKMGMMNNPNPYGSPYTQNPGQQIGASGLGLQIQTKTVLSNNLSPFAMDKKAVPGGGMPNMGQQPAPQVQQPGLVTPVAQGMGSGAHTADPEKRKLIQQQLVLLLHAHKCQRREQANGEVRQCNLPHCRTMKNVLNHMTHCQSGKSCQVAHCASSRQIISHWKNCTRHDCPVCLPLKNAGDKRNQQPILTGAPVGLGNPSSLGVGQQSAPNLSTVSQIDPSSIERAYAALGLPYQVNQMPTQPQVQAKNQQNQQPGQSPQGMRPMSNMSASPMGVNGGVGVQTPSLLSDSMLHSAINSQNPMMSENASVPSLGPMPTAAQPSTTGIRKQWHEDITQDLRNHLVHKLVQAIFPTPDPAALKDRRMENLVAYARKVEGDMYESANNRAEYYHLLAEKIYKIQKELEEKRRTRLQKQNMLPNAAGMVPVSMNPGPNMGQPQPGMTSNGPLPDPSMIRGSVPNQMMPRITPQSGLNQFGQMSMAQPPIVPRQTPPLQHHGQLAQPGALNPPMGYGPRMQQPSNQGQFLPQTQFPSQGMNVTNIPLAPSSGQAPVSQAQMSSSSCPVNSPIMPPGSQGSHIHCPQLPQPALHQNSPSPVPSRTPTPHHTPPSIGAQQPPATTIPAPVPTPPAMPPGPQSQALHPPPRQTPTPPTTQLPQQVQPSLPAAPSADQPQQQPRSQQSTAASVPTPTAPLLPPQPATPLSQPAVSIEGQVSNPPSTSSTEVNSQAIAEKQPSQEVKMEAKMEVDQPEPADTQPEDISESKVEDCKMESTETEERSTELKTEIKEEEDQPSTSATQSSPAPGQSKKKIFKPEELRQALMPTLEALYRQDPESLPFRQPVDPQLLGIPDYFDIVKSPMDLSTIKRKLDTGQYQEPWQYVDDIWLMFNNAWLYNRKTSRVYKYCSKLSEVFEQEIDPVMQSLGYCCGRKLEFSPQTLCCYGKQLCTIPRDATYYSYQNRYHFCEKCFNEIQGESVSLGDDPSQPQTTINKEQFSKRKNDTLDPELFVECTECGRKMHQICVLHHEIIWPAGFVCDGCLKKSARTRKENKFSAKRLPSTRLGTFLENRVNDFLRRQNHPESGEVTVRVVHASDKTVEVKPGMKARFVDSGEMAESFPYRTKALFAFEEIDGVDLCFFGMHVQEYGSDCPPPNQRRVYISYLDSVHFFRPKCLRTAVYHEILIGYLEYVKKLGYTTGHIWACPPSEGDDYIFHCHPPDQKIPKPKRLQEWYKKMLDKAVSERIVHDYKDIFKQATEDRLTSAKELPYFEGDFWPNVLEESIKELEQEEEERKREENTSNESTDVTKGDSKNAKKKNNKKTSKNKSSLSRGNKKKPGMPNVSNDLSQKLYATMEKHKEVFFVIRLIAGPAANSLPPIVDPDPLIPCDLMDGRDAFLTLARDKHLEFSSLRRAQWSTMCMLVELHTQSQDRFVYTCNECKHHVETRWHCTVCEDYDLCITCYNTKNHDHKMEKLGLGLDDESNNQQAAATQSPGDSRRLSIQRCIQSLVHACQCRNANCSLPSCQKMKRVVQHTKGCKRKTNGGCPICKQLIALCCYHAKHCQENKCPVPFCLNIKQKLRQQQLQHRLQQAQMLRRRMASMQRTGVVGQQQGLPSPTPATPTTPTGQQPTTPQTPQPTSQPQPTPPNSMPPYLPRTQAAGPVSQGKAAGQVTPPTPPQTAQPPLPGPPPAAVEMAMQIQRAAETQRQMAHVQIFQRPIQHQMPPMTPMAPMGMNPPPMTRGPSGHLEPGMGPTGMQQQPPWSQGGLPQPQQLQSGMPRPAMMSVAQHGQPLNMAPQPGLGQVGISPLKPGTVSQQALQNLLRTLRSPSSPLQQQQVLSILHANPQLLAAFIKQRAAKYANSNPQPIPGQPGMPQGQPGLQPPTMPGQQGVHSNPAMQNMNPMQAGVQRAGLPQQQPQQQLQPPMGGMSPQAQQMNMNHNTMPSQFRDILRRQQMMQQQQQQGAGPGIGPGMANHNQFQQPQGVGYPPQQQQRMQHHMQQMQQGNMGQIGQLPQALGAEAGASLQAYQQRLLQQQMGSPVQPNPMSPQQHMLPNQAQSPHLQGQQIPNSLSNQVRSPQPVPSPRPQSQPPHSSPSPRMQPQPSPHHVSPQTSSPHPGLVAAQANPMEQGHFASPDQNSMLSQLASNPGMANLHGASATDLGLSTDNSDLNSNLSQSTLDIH

Results are given in words; binding and its absence hold for the method and conditions named. Binding seen in cells or lysates may run through a third protein.

As to “p300 (histone acetyltransferase p300), HA-tagged, from pCDNA3-HA-p300 (from UniProt Q09472 1-2414)”, the binding entry is “no binding”.

These data come from article PMC6796730.
